Results: publication PMC5811984
These are yes or no findings as the source states them, for the method shown. In cells and extracts the contact can be indirect. Some entries that bind do so weakly or less than the wild type. For some of these results: Where a sequence is shown, tags or fusion partners need not be part of it.

The chains behind the UniProt entries cited, without tags or fusion partners.
UniProt Q15286: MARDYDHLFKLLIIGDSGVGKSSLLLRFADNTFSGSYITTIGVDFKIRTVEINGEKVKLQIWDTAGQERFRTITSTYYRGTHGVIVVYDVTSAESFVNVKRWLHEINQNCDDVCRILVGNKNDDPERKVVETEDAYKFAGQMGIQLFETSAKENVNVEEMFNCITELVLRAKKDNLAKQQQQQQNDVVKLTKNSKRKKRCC
UniProt P61006: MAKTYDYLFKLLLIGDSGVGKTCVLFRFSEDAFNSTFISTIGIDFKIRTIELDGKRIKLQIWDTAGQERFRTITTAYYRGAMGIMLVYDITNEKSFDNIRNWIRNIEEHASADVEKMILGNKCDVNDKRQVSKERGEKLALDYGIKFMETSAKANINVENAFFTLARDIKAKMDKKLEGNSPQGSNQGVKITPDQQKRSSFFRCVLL
UniProt P62820: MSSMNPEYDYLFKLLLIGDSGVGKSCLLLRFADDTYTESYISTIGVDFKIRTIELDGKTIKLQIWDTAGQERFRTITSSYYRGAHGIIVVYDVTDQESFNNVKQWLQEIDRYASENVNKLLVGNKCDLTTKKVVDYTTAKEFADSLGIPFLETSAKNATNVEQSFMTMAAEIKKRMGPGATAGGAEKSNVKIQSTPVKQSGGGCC
UniProt Q5S007: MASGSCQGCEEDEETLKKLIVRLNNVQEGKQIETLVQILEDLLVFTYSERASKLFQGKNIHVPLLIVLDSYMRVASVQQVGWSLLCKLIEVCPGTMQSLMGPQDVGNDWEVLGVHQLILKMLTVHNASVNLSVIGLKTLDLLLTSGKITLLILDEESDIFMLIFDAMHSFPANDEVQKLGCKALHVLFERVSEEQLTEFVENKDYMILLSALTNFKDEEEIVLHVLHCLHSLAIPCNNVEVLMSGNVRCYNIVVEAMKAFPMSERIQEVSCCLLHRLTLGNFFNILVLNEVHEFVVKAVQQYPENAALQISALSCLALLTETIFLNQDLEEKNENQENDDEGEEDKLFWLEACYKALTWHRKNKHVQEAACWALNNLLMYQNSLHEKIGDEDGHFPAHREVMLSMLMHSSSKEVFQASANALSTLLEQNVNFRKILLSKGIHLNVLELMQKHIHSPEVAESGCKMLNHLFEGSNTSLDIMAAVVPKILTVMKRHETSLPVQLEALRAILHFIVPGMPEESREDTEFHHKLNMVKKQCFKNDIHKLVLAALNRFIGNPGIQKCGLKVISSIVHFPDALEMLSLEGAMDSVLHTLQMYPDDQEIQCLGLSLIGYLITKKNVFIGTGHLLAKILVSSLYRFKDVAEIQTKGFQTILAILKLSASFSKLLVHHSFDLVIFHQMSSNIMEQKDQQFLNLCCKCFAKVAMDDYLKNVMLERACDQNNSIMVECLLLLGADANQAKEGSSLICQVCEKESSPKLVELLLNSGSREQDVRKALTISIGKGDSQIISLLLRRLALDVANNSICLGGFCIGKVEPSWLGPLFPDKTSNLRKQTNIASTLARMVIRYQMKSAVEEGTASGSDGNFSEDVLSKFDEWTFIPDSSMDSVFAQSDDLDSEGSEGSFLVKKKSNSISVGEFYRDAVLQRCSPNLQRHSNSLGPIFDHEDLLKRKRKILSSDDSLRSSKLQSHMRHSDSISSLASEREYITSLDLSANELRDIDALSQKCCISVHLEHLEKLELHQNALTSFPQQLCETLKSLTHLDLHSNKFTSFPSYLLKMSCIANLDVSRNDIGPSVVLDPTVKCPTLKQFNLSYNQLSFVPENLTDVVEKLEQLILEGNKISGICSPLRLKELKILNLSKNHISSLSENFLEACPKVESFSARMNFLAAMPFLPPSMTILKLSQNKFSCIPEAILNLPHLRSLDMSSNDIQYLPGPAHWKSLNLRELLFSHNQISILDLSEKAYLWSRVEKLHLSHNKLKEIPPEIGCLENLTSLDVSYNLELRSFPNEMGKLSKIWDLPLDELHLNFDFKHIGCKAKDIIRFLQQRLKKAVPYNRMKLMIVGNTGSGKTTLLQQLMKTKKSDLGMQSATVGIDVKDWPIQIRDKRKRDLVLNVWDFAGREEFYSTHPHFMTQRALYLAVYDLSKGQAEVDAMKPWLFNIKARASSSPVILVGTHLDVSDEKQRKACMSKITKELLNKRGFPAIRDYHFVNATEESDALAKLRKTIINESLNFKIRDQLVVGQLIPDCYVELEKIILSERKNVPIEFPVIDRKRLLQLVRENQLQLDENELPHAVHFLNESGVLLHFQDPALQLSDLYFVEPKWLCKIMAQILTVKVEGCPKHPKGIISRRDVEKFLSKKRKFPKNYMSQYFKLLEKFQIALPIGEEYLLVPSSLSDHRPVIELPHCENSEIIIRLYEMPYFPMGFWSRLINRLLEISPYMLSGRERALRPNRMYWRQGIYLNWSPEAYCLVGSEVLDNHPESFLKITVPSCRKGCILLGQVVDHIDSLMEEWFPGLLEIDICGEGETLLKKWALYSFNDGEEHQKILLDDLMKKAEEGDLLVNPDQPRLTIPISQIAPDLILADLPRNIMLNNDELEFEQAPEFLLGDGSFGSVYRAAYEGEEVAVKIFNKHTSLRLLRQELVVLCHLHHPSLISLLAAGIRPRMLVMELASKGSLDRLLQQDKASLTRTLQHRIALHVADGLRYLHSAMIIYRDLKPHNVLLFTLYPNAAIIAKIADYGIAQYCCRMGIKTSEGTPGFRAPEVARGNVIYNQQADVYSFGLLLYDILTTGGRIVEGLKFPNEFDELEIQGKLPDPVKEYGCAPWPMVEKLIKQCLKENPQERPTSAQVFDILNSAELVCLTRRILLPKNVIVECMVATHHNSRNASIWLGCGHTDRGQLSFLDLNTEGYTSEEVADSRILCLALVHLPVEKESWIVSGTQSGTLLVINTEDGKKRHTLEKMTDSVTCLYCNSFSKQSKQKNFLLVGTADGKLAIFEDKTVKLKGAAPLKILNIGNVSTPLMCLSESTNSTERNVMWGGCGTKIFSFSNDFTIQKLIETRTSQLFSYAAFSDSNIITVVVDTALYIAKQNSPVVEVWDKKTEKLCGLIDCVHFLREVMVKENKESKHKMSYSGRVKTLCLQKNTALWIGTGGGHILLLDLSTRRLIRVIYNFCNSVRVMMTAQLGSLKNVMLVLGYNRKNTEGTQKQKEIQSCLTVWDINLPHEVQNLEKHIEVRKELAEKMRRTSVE

Tests used:
V5-tagged Rab35 (human) = V5-tagged Rab35 (human) (UniProt Q15286); assay: co-IP; reciprocal: HEK-293 co-transfected with myc-LRRK2 and V5-Rab; lysate (50 mM Tris-HCl pH 7.5, 0.5% TX-100, 150 mM NaCl, 0.5 mM EGTA) immunoprecipitated with anti-V5 on protein-G-agarose overnight at 4°C; blotted with anti-myc
V5-tagged Rab8a (human) = V5-tagged Rab8a (human) (UniProt P61006); assay: as above
V5-tagged Rab1a (human) = V5-tagged Rab1a (human) (UniProt P62820); assay: as above
V5-tagged Rab3c (human) = biological target: T1, V5-tagged Rab3c (human) (UniProt Q96E17); assay: as above
T1 sequence: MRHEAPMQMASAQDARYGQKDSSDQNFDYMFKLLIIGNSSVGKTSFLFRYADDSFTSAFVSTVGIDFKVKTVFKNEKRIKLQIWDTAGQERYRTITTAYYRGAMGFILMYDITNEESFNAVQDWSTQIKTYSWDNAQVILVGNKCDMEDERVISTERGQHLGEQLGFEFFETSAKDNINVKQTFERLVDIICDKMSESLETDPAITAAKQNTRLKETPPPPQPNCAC

[1] = biological target: Myc-tagged LRRK2 (leucine-rich repeat kinase 2), wild-type (UniProt Q5S007); assay: co-IP; HEK-293 co-transfected with myc-LRRK2 and V5-Rab; lysate (50 mM Tris-HCl pH 7.5, 0.5% TX-100, 150 mM NaCl, 0.5 mM EGTA) immunoprecipitated with anti-myc on protein-G-agarose overnight at 4°C; blotted with anti-V5

| binding (V5-tagged Rab35 (human)) | binding (V5-tagged Rab8a (human)) | binding (V5-tagged Rab1a (human)) | binding (V5-tagged Rab3c (human)) | binding [1] | Substance |
| --- | --- | --- | --- | --- | --- |
| binds | binds | binds | binds |  | Myc-tagged LRRK2 (leucine-rich repeat kinase 2), wild-type (from UniProt Q5S007 1-2527) (enzyme) |
|  |  |  |  | binds | V5-tagged Rab1a (from UniProt P62820 1-205) |
|  |  |  |  | binds | V5-tagged Rab8a (from UniProt P61006 1-207) |
|  |  |  |  | binds | V5-tagged Rab35 (from UniProt Q15286 1-201) |
